## Library screen at single concentrations

Source: ChEMBL document CHEMBL3988442, “University of Dundee, Small-Polar-MMV Screening Library” (2021).

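Assay of Toxoplasma gondii numbers, read through their beta-galactosidase reporter with a colour substrate. Tested at 50 µM. Higher reads as fewer parasites (inferred from which compounds were picked for retests). Size under these conditions: about 18,000 compounds, about 170 of them at 50% or above in at least one test.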

Values are the deposited “Percent Effect”, in %. How 0% and 100% were set is not recorded. Most values in the screen are low, and negative values occur. Compounds were drawn at random from those tested, without regard to their results.

Cc1nc[nH]c1C(=O)NCC1CCN(CC(C)C)C1 (stereo unspecified) read -11.98%. Result for Cc1ccc(CNc2ccc(N(C)C)nc2)o1 was -18.89%. Result for COc1ccc(CC(C)=O)cn1 was 0.7009%. For Cc1ccc(NC(=O)CN2CCC(O)CC2)c(C)c1 the result was -12.99%. Cc1csc(-n2cccc2)n1 gave 6.571%. Cc1cc(C)c(C#N)c(SCC(=O)N2CCCC2)n1 read -20.07%.

Result for COc1ccc(C2CCCN2CC(N)=O)c(OC)c1 (stereo unspecified) was 27.99%. Result for CN(Cc1c(F)cccc1Cl)C(=O)c1ccccn1 was 1.675%. With C1CN(C2CNC2)CCO1 the screen gave 0.2899%. CC(C)C(C(=O)N1CCNC(=O)C1)c1ccc(Cl)cc1 (stereo unspecified) read -6.782%. With COc1c(C)cnc(CN(C)S(N)(=O)=O)c1C the screen gave 3.387%. With CN1Cc2cccn2CC1CNC(=O)NC1CCCC1 (stereo unspecified) the screen gave 2.948%.

Result for O=C(NCCSc1ccccn1)C1CCCCO1 (stereo unspecified) was 27.35%. COc1ccc(C(=O)NC2(C#N)CCOCC2)cc1Br read -6.217%. For O=C(NCCC1=CCCCC1)NC1CCS(=O)(=O)C1 (stereo unspecified) the result was -3.897%. CNC(=O)C(CC(C)C)NC(=O)c1ccccn1 (stereo unspecified) gave 23.91%. CSCCC(NC(N)=O)C(=O)NCc1ccc(Cl)cc1 (stereo unspecified) gave 2.55%. O=C(CCc1ccc(O)cc1)N[C@@H]1CCNC[C@H]1O read 10.97%.

Result for Cc1n[nH]c(C)c1C(N)C(=O)NCC1(O)CCCCC1 (stereo unspecified) was -3.619%. Cn1cc(C(=O)NC2CCCOc3ccccc32)nn1 (stereo unspecified) read -16.17%. CC(C)C(=O)NCc1ccc(F)cc1 read -6.615%. For N#CCOC(=O)c1ccc2c(c1)OCCCO2 the result was -10.53%. CC(=O)N(CC(=O)OC(C)(C)C)C1CCCNCC1 (stereo unspecified) read 37.81%. For Fc1cc(Cl)cnc1N1CCCNCC1 the result was 21.16%.

For O=C(Cn1c(=O)oc2cc(Cl)ccc21)N1CCOCC1 the result was 16.65%. CC1(c2ccccc2)COCCN1 (stereo unspecified) read 11.55%. CCN1CCCC1CNS(=O)(=O)c1cn(C(C)C)cn1 (stereo unspecified) gave -18.76%. Cc1cccc(NC(=O)Cn2cnnn2)c1 read -15%. For NCc1cccc(C(=O)NC2CC2)c1 the result was 17.93%. For Cc1ccc2nc(CN3CCOCS3(=O)=O)cn2c1 the result was 4.013%.

For CN1CCN(C(=O)c2cc3c(F)cccc3s2)CC1 the result was -23.99%. For COCCN1CCCC(O)(CN2CCSCC2)C1=O (stereo unspecified) the result was 5.524%. For CCCNC(=O)C1CCN(C(=O)N(CC)CC)CC1 the result was 0.4834%. Result for Cc1nn(C)c(N(C)C)c1CNCCc1cnn(C)c1 was 17.92%. For CN1CCN(C)C(CC(=O)NCc2ccoc2)C1 (stereo unspecified) the result was 4.379%. For CSc1cccc(NC(=O)CN)c1 the result was -0.9336%.

With CC(C)CC(CN)CCO (stereo unspecified) the screen gave 0.9202%. Cc1cc(NC(=O)N2CCS(=O)(=O)CC2)c(Cl)cc1F read -7.121%. Result for Cc1cncc(C(N)=O)c1 was 97.16%. Result for N#Cc1ccc(N2CCCC2C(=O)NC2CC2)cn1 (stereo unspecified) was 0.7704%. N#CC1CCCOC1 (stereo unspecified) gave 4.535%. For CCn1nc(C)c(CCN)c1C the result was -2.669%.

With CSc1ccccc1CN1CCN(CCC(N)=O)CC1 the screen gave -1.079%. For CC(C)[C@H]1CN(c2nccc(N)n2)C[C@@H]1N the result was 7.055%. NCCc1ccco1 read -1.786%. Result for Cc1cc(CN(C)C(=O)C2CCCN2S(C)(=O)=O)no1 (stereo unspecified) was -2.48%. NC(=O)c1ccc(NC(=O)CCN2CCSCC2)cc1 gave 19.48%. Result for CNC1CCCOC1 (stereo unspecified) was -12.79%.

With O=C(CCN1CCCCC1)c1ccc2c(c1)OCO2 the screen gave 2.925%. Result for NCCOc1ccc(OCCN)cc1 was -5.581%. Result for CN(CCN1CCCC1=O)C(=O)c1ncccc1Br was -6.361%. NC1(c2ccccc2F)CC1 gave 31.31%. NCc1cccnc1OC1CCCC1 read -0.02788%. Cc1cc(C(=O)NCCc2noc(C3CC3)n2)nn1C read 97.7%.

For reference, 5 entries once more:

| SMILES | effect |
|---|---|
| `CN1CCN(C(=O)c2cc3c(F)cccc3s2)CC1` | -23.99% |
| `CN(CCN1CCCC1=O)C(=O)c1ncccc1Br` | -6.361% |
| `Cc1nc[nH]c1C(=O)NCC1CCN(CC(C)C)C1` (stereo unspecified) | -11.98% |
| `Cc1cc(NC(=O)N2CCS(=O)(=O)CC2)c(Cl)cc1F` | -7.121% |
| `N#Cc1ccc(N2CCCC2C(=O)NC2CC2)cn1` (stereo unspecified) | 0.7704% |